From article doi:10.1101/2025.01.02.631137
No constants are given. Whether binding was seen depends on the method and setting. Binding seen in cells or lysates may run through a third protein. Some results given as binding are weak or reduced against the parent protein; the word gives no strength. For some assays here: Sequences can lack the tags named with a protein.

Columns and labels:
[1] = target: T1, ssGFP-bGLU25 (GFP between the signal peptide and the remainder of bGLU25) (A. thaliana) (UniProt O82772); assay: co-IP
T1 sequence: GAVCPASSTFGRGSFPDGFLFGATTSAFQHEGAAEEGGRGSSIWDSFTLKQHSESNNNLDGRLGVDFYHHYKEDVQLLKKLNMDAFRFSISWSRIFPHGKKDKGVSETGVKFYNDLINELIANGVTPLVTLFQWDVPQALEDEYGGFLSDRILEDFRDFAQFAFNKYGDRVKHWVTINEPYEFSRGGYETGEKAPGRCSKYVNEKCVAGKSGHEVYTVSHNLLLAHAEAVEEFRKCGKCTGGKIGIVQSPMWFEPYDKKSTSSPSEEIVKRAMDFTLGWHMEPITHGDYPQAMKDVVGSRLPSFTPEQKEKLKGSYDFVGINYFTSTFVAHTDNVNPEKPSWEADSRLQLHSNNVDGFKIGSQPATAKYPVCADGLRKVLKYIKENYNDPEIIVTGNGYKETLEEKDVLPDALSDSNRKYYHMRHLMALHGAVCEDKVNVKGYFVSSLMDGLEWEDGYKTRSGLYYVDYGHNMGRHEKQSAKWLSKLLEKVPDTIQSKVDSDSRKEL

[2] = target: T2, ΔbGLU25-GFP (A. thaliana) (UniProt O82772); assay: co-IP
T2 sequence: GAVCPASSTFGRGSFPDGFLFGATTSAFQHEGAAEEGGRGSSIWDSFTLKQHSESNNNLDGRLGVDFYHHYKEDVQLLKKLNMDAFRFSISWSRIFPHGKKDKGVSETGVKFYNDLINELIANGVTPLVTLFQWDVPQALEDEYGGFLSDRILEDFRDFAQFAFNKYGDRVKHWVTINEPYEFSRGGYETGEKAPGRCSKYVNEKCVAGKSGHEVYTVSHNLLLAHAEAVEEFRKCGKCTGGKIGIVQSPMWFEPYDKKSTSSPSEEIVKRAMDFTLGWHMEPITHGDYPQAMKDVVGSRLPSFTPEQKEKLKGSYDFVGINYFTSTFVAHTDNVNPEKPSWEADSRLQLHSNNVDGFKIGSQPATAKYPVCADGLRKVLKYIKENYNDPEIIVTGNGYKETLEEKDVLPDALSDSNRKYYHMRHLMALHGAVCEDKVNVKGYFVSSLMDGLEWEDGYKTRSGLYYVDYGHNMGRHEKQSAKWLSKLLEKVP

[3] = target: T3, bGLU25 fused to a split mVenus half (BiFC) (A. thaliana) (UniProt O82772); assay: split reporter
T3 sequence: T1 sequence

[4] = target: T4, ΔbGLU25 fused to a split mVenus half (BiFC) (A. thaliana) (UniProt O82772); assay: split reporter
T4 sequence: T2 sequence

[5] = target: T5, AtJAC1-mVenus^C (BiFC) (A. thaliana) (UniProt O04309); assay: split reporter
T5 sequence: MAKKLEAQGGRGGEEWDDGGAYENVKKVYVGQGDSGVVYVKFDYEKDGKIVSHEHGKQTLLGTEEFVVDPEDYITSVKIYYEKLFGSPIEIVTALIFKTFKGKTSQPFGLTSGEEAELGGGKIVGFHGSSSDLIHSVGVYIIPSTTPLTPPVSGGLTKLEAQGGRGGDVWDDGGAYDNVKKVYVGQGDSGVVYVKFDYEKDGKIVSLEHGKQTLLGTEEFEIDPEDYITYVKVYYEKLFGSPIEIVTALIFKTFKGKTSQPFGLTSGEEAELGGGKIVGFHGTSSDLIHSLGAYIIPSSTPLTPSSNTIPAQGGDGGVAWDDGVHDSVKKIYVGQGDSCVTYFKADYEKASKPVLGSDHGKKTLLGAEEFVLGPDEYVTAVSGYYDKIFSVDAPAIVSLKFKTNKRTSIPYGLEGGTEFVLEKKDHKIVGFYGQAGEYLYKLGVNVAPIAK

B1: AtJAC1-HA (protein, UniProt O04309 1-451)
chain: T5 sequence
binding [1]: binds | binding [2]: binds

B2: AtJAC1-mVenus^C (BiFC) (protein, UniProt O04309 1-451)
chain: T5 sequence
binding [3]: binds | binding [4]: binds

B3: GLYCINE-RICH RNA-BINDING PROTEIN 7 (GRP7)-mVenus^N (BiFC) (protein, UniProt Q03250 1-176)
chain: MASGDVEYRCFVGGLAWATDDRALETAFAQYGDVIDSKIINDRETGRSRGFGFVTFKDEKAMKDAIEGMNGQDLDGRSITVNEAQSRGSGGGGGHRGGGGGGYRSGGGGGYSGGGGSYGGGGGRREGGGGYSGGGGGYSSRGGGGGSYGGGRREGGGGYGGGEGGGYGGSGGGGGW
binding [5]: binds
